# Reference: PubChem BioAssay AID250 (DTP/NCI, 2004)
# The list shows only some results of the screen, not a fair sample: it gathers some chemical classes. Other doses and runs of a compound may be missing. T/C is the treated group as % of the vehicle group. Some doses have a count of surviving animals in place of a T/C: the source files T/C as zero there, which appears to mark a toxic dose or a test without result, not a measured value. Some doses without a T/C left all or most animals alive at the check, yet need not have been tolerated: the source hardly ever lists a survival T/C far under the control, and the zero likely stands for such cases as well. Counts of survivors are from the toxicity check (mostly the fifth day) where no day follows; animals may have died later. Schedules are NCI's codes, read here as Q, the interval in days (D) or hours (H), X, the number of doses. Some schedule codes hold Z or #, which are not explained here. For survival time, the PubChem record calls one and a half times the control and up active, and a quarter to a half above the control has no call in these data; cut-offs in other NCI protocols can differ. Some T/C values carry the count of animals alive at the toxicity check (mostly the fifth day); where neither a count nor a note follows, no animal had died by that day.
# Tested on: BDF1 mice, L1210 leukemia sc, survival T/C
# Assay: NCI In Vivo Anticancer Drug Screen. Data for tumor model L1210 Leukemia (subcutaneous) in B6D2F1 (BDF1) mice
# Conditions: higher T/C = longer survival
# Description: The antitumor activity of compounds was measured in mice bearing transplantable tumors. Survival or tumor size were measured and the results are expressed as the measurement made in the treated group (T) divided by the measurement made in the vehicle treated control group (C). The tumor model used in this assay is L1210 Leukemia (subcutaneous) in B6D2F1 (BDF1) mice
# [1] = T/C endpoint: median survival time, dose: 39.0 mg/kg/injection, schedule: Q01DX Z (sc), vehicle: methylcellulose (MC)
# [2] = T/C endpoint: median survival time, dose: 65.0 mg/kg/injection, schedule: Q01DX Z (sc), vehicle: methylcellulose (MC)
# [3] = T/C endpoint: median survival time, dose: 3.0 mg/kg/injection, schedule: Q01DX Z (sc), vehicle: saline
# [4] = T/C endpoint: median survival time, dose: 8.4 mg/kg/injection, schedule: Q01DX Z (sc), vehicle: saline
# [5] = T/C endpoint: median survival time, dose: 14.0 mg/kg/injection, schedule: Q01DX Z (sc), vehicle: saline
# [6] = T/C endpoint: median survival time, dose: 23.0 mg/kg/injection, schedule: Q01DX Z (sc), vehicle: saline
# [7] = T/C endpoint: median survival time, dose: 39.0 mg/kg/injection, schedule: Q01DX Z (sc), vehicle: saline
# [8] = T/C endpoint: median survival time, dose: 65.0 mg/kg/injection, schedule: Q01DX Z (sc), vehicle: saline
# [9] = T/C endpoint: median survival time, dose: 180.0 mg/kg/injection, schedule: Q01DX Z (sc), vehicle: methylcellulose (MC)
# [10] = T/C endpoint: median survival time, dose: 300.0 mg/kg/injection, schedule: Q01DX Z (sc), vehicle: methylcellulose (MC)
smiles,measurement,setting,value
N/C(=N/[N+](=O)[O-])N(CCBr)N=O.NC1=CCCN1[N+](=O)[O-],T/C,"T/C endpoint: median survival time, dose: 1.08 mg/kg/injection, schedule: Q01DX Z (sc), vehicle: methylcellulose (MC)",100 % of control
same,T/C,"T/C endpoint: median survival time, dose: 1.8 mg/kg/injection, schedule: Q01DX Z (sc), vehicle: methylcellulose (MC)",110 % of control
same,T/C,"T/C endpoint: median survival time, dose: 3.0 mg/kg/injection, schedule: Q01DX Z (sc), vehicle: methylcellulose (MC)",100 % of control
same,T/C,"T/C endpoint: median survival time, dose: 5.0 mg/kg/injection, schedule: Q01DX Z (sc), vehicle: methylcellulose (MC)",110 % of control [9 of 10 alive]
same,T/C,"T/C endpoint: median survival time, dose: 8.4 mg/kg/injection, schedule: Q01DX Z (sc), vehicle: methylcellulose (MC)",110 % of control
same,T/C,"T/C endpoint: median survival time, dose: 14.0 mg/kg/injection, schedule: Q01DX Z (sc), vehicle: methylcellulose (MC)",110 % of control
same,T/C,"T/C endpoint: median survival time, dose: 23.0 mg/kg/injection, schedule: Q01DX Z (sc), vehicle: methylcellulose (MC)",105 % of control [9 of 10 alive]
same,T/C,[1],100 % of control [8 of 10 alive]
same,T/C,[2],100 % of control
CCN(CCCl)Cc1cccc2ccccc12,T/C,"T/C endpoint: median survival time, dose: 5.0 mg/kg/injection, schedule: Q01DX Z (sc), vehicle: other",90 % of control
same,T/C,"T/C endpoint: median survival time, dose: 8.4 mg/kg/injection, schedule: Q01DX Z (sc), vehicle: other",90 % of control [8 of 10 alive]
same,T/C,"T/C endpoint: median survival time, dose: 14.0 mg/kg/injection, schedule: Q01DX Z (sc), vehicle: other",95 % of control [9 of 10 alive]
same,survivor count,"T/C endpoint: median survival time, dose: 23.0 mg/kg/injection, schedule: Q01DX Z (sc), vehicle: other",6 of 10
same,T/C,"T/C endpoint: median survival time, dose: 39.0 mg/kg/injection, schedule: Q01DX Z (sc), vehicle: other",95 % of control
same,survivor count,"T/C endpoint: median survival time, dose: 65.0 mg/kg/injection, schedule: Q01DX Z (sc), vehicle: other",4 of 10
same,survivor count,"T/C endpoint: median survival time, dose: 108.0 mg/kg/injection, schedule: Q01DX Z (sc), vehicle: other",10 of 10
CC1(C)CN1P(=O)(Nc1ncccn1)N1CC1(C)C (configuration not stated),T/C,"T/C endpoint: mean survival time, dose: 200.0 mg/kg/injection, schedule: Q08DX003 (sc), vehicle: saline, evaluated on day 7",102 % of control
same,T/C,"T/C endpoint: mean survival time, dose: 200.0 mg/kg/injection, schedule: Q08DX003 (sc), vehicle: saline, evaluated on day 31",102 % of control
same,T/C,"T/C endpoint: mean survival time, dose: 400.0 mg/kg/injection, schedule: Q08DX003 (sc), vehicle: saline, evaluated on day 7",109 % of control
same,T/C,"T/C endpoint: mean survival time, dose: 400.0 mg/kg/injection, schedule: Q08DX003 (sc), vehicle: saline, evaluated on day 31",109 % of control
same,T/C,"T/C endpoint: mean survival time, dose: 800.0 mg/kg/injection, schedule: Q08DX003 (sc), vehicle: saline, evaluated on day 7",118 % of control
same,T/C,"T/C endpoint: mean survival time, dose: 800.0 mg/kg/injection, schedule: Q08DX003 (sc), vehicle: saline, evaluated on day 31",118 % of control
same,T/C,"T/C endpoint: mean survival time, dose: 1600.0 mg/kg/injection, schedule: Q08DX003 (sc), vehicle: saline, evaluated on day 7",117 % of control
same,T/C,"T/C endpoint: mean survival time, dose: 1600.0 mg/kg/injection, schedule: Q08DX003 (sc), vehicle: saline, evaluated on day 31",117 % of control
same,T/C,"T/C endpoint: median survival time, dose: 200.0 mg/kg/injection, schedule: Q08DX003 (sc), vehicle: saline, evaluated on day 7",105 % of control
same,T/C,"T/C endpoint: median survival time, dose: 200.0 mg/kg/injection, schedule: Q08DX003 (sc), vehicle: saline, evaluated on day 42",100 % of control
same,T/C,"T/C endpoint: median survival time, dose: 400.0 mg/kg/injection, schedule: Q08DX003 (sc), vehicle: saline, evaluated on day 7",113 % of control
same,T/C,"T/C endpoint: median survival time, dose: 400.0 mg/kg/injection, schedule: Q08DX003 (sc), vehicle: saline, evaluated on day 42",111 % of control
same,T/C,"T/C endpoint: median survival time, dose: 800.0 mg/kg/injection, schedule: Q08DX003 (sc), vehicle: saline, evaluated on day 7",115 % of control
same,T/C,"T/C endpoint: median survival time, dose: 800.0 mg/kg/injection, schedule: Q08DX003 (sc), vehicle: saline, evaluated on day 42",111 % of control
same,T/C,"T/C endpoint: median survival time, dose: 1600.0 mg/kg/injection, schedule: Q08DX003 (sc), vehicle: saline, evaluated on day 7",120 % of control
same,T/C,"T/C endpoint: median survival time, dose: 1600.0 mg/kg/injection, schedule: Q08DX003 (sc), vehicle: saline, evaluated on day 42",116 % of control
N/C(=N\[N+](=O)[O-])N(CCCl)N=O,T/C,"T/C endpoint: median survival time, dose: 1.08 mg/kg/injection, schedule: Q01DX Z (sc), vehicle: saline",100 % of control
same,T/C,"T/C endpoint: median survival time, dose: 1.8 mg/kg/injection, schedule: Q01DX Z (sc), vehicle: saline",100 % of control
same,T/C,[3],110 % of control [9 of 10 alive]
same,T/C,"T/C endpoint: median survival time, dose: 5.0 mg/kg/injection, schedule: Q01DX Z (sc), vehicle: saline",110 % of control
same,T/C,[4],100 % of control
same,T/C,[5],110 % of control
same,T/C,[6],100 % of control [8 of 10 alive]
same,T/C,[7],110 % of control [9 of 10 alive]
same,T/C,[8],100 % of control
CCN(CCCl)Cc1ccccc1,T/C,[4],100 % of control
CCN(CCCl)Cc1ccc(C(C)C)cc1,T/C,[3],100 % of control
same,T/C,[4],105 % of control
same,T/C,[6],100 % of control
CN(N=O)C(=N)N[N+](=O)[O-],T/C,"T/C endpoint: median survival time, dose: 2.5 mg/kg/injection, schedule: Q01DX009 (ip), vehicle: saline",95 % of control
same,T/C,"T/C endpoint: median survival time, dose: 5.0 mg/kg/injection, schedule: Q01DX009 (ip), vehicle: saline",100 % of control
same,T/C,"T/C endpoint: median survival time, dose: 10.0 mg/kg/injection, schedule: Q01DX009 (ip), vehicle: saline",100 % of control
same,T/C,[5],110 % of control
same,T/C,"T/C endpoint: median survival time, dose: 20.0 mg/kg/injection, schedule: Q01DX009 (ip), vehicle: saline",100 % of control
same,T/C,[6],100 % of control
same,T/C,[7],100 % of control
same,survivor count,"T/C endpoint: median survival time, dose: 40.0 mg/kg/injection, schedule: Q01DX009 (ip), vehicle: saline",8 of 8
same,T/C,[8],110 % of control
same,survivor count,"T/C endpoint: median survival time, dose: 80.0 mg/kg/injection, schedule: Q01DX009 (ip), vehicle: saline",4 of 8
same,T/C,"T/C endpoint: median survival time, dose: 108.0 mg/kg/injection, schedule: Q01DX Z (sc), vehicle: saline",110 % of control
same,T/C,"T/C endpoint: median survival time, dose: 180.0 mg/kg/injection, schedule: Q01DX Z (sc), vehicle: saline",100 % of control [8 of 10 alive]
NNS(=O)(=O)c1ccc(N(CCCl)CCCl)cc1,T/C,"T/C endpoint: median survival time, dose: 112.0 mg/kg/injection, schedule: Q01DX Z (sc), vehicle: methylcellulose (MC)",104 % of control [9 of 10 alive]
same,survivor count,[9],4 of 10
same,T/C,"T/C endpoint: median survival time, dose: 187.0 mg/kg/injection, schedule: Q01DX Z (sc), vehicle: methylcellulose (MC)",100 % of control [9 of 10 alive]
same,survivor count,[10],3 of 10
same,T/C,"T/C endpoint: median survival time, dose: 311.0 mg/kg/injection, schedule: Q01DX Z (sc), vehicle: methylcellulose (MC)",100 % of control [9 of 10 alive]
same,survivor count,"T/C endpoint: median survival time, dose: 500.0 mg/kg/injection, schedule: Q01DX Z (sc), vehicle: methylcellulose (MC)",5 of 10
same,T/C,"T/C endpoint: median survival time, dose: 518.0 mg/kg/injection, schedule: Q01DX Z (sc), vehicle: methylcellulose (MC)",100 % of control [7 of 10 alive]
same,survivor count,"T/C endpoint: median survival time, dose: 833.0 mg/kg/injection, schedule: Q01DX Z (sc), vehicle: methylcellulose (MC)",3 of 10
same,T/C,"T/C endpoint: median survival time, dose: 861.0 mg/kg/injection, schedule: Q01DX Z (sc), vehicle: methylcellulose (MC)",100 % of control [8 of 10 alive]
same,survivor count,"T/C endpoint: median survival time, dose: 1388.0 mg/kg/injection, schedule: Q01DX Z (sc), vehicle: methylcellulose (MC)",1 of 10
CCOC(=O)COc1cccc(N(CCCl)CCCl)c1,T/C,[1],100 % of control [8 of 10 alive]
same,T/C,[2],100 % of control
same,T/C,"T/C endpoint: median survival time, dose: 108.0 mg/kg/injection, schedule: Q01DX Z (sc), vehicle: methylcellulose (MC)",100 % of control [8 of 10 alive]
same,T/C,[9],100 % of control [9 of 10 alive]
same,T/C,[10],105 % of control
